Measured values from article PMC7603314, “Broad-complex transcription factor mediates opposing hormonal regulation of two phylogenetically distant arginine kinase genes in Tribolium castaneum” (Communications Biology, 2020).
The exact form of at least one protein or probe is not confirmed.

Test system: GST-TcBR-C-z2 (Tribolium castaneum)
Assay: EMSA
Details: Chemiluminescent EMSA kit (Beyotime), per manufacturer; pH and temperature not stated; unlabeled probe competition done, outcome not given; recombinant protein; protein details: N-terminal GST (pGEX4T-1); label: biotin

Row | Sequence | binding result
1 | CCGGGAGAGGGGATTCTGCAAATAGATTTTTATCAGTTAATTCCTT (double strand) [TcAK1 promoter probe] | binds
2 | TCTCCCTTATTTATTGAAATATAAATAGAATTCTGAAATT (double strand) [TcAK2 promoter probe] | binds
